Test results: publication PMC10981675, “Structural basis for phage-mediated activation and repression of bacterial DSR2 anti-phage defense system” (Nature Communications, 2024)
Numbering of substitutions follows the chain as printed. These are yes or no findings as the source states them, for the method shown. Some results given as binding are weak or reduced against the parent protein; the word gives no strength.

Columns and labels:
[1] = target: T1, DSR2 T248A (Bacillus subtilis) (UniProt P0DXN8); test: tandem affinity co-purification + SEC; His-DSR2 and GST-tube made in E. coli; for wild type the cells expressing each were mixed before lysis; Ni-NTA, then glutathione resin, GST removed with HRV 3C, HiTrap Q, Superdex 200 Increase; mutants purified by the same method
T1 sequence: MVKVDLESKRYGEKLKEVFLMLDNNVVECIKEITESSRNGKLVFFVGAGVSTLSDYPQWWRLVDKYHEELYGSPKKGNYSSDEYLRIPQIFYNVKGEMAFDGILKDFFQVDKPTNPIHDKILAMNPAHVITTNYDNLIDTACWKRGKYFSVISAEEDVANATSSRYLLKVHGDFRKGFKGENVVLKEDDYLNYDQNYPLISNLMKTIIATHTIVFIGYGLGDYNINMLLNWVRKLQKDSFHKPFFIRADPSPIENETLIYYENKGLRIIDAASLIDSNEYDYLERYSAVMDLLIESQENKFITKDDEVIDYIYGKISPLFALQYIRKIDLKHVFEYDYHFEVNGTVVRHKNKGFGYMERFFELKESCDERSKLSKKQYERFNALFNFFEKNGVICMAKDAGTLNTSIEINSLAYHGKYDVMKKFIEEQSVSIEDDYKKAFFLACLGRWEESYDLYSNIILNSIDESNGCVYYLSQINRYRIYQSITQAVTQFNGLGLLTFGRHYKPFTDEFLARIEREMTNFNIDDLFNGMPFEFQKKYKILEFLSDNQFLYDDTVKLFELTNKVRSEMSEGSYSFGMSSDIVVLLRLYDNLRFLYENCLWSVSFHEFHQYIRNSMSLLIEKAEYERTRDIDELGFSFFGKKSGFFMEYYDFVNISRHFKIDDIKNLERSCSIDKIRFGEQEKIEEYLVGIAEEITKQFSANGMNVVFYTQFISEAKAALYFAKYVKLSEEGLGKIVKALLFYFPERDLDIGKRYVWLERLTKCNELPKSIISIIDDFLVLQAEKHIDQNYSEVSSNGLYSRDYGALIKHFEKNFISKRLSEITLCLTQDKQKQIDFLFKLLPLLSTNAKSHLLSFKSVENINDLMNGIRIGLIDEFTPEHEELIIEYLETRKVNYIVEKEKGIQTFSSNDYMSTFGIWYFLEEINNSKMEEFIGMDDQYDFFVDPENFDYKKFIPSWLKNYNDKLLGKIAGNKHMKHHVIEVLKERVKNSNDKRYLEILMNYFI

[2] = target: T2, DSR2 T52A (Bacillus subtilis) (UniProt P0DXN8); test: as above
T2 sequence: T1 sequence with T52A, A248T

B1: tail tube protein of phage SPR, wild type (natural protein)
chain: MKTVIQDTADVYFKRKSDGKLVFTAEAQTASFSQAISEEKLRGGIGNKPLYILKSEKEINLTVKNAFFDLEWLAMTQGETIQEETKVKVFDREHGLIVDDTNKVTLKGKPVSDVTFYNKKGLTYKIAVSTDGTYTIPTAFAAAKDKLTAVYQIEKVGRRLAIKASKFSERYEVEYRTIAYNPDTEEVYSDIYIQFPNVSPSGEFEMSLENGNALAPEIKFEALADTDTDEMAVVIEASRDENTAAPVEDTTGSTQSSDLGGTTE
notes: tail tube protein of Bacillus phage SPR; domains D1 and D2; GST removal with HRV 3C is told for the DSR2-tube complex; Alone it runs as monomeric and oligomeric species on SEC; Only D1 is seen in the maps; also called phage tail tube protein; source: E. coli BL21 Star (DE3); purified alone, or co-purified with DSR2 (Ni-NTA, glutathione resin, HRV 3C cleavage, HiTrap Q, Superdex 200); not shown: …
In the case of B1, the binding [1] is reported as “binds” and the binding [2] is reported as “binds”.
